# According to patent US9103820B2 (priority 2004, dated 2015):
# At least one peptide structure holds a part that was inferred or is arguable (an end, a ring closure or a residue). Positions of bridges follow the written chain, without caps; N, C: chain ends. Non-standard residues stand in square brackets, D forms with d. Chains are numbered I, II in the order given. No end group written: not given here. ξ: configuration not given here. ξK = NCCCCC(N)C(=O)O; Ahx = NCCCCCC(=O)O
# Target: His-tagged Stx 2B-subunit (Escherichia phage 933W, UniProt P09386)
# Type: binding, Escherichia coli O157:H7
row,Substance,RUmax
1,"I: MAFRRNRRNA[Ahx][ξK][ξK] / II: MAFRRNRRNA[Ahx][ξK] / III: MAFRRNRRNA[Ahx] / IV: MAFRRNRRNA[Ahx] (amide I:12-IV:C, I:13-II:C, II:12-III:C) [FRRNRRN]","1,490 AU"
2,"I: MAPPRRNRRA[Ahx][ξK][ξK] / II: MAPPRRNRRA[Ahx][ξK] / III: MAPPRRNRRA[Ahx] / IV: MAPPRRNRRA[Ahx] (amide I:12-IV:C, I:13-II:C, II:12-III:C) [PPRRNRR]","1,350 AU"
3,"I: MAPPPRRRRA[Ahx][ξK][ξK] / II: MAPPPRRRRA[Ahx][ξK] / III: MAPPPRRRRA[Ahx] / IV: MAPPPRRRRA[Ahx] (amide I:12-IV:C, I:13-II:C, II:12-III:C) [PPPRRRR]","1,250 AU"
4,"I: MAKRRNPRRA[Ahx][ξK][ξK] / II: MAKRRNPRRA[Ahx][ξK] / III: MAKRRNPRRA[Ahx] / IV: MAKRRNPRRA[Ahx] (amide I:12-IV:C, I:13-II:C, II:12-III:C) [KRRNPRR]","1,290 AU"
